The list shows a part of the results.

The chains behind the UniProt entries cited, without tags or fusion partners. Where a name states a change or a piece, a line headed by the entry shows the natural chain unless it says otherwise.
UniProt Q99470: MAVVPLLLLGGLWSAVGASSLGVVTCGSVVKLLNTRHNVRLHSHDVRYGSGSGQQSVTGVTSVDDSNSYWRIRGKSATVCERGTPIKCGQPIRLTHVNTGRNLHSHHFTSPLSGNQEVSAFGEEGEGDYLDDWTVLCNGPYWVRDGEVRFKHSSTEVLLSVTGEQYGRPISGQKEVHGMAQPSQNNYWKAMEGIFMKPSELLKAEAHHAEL
UniProt Q8WXA9: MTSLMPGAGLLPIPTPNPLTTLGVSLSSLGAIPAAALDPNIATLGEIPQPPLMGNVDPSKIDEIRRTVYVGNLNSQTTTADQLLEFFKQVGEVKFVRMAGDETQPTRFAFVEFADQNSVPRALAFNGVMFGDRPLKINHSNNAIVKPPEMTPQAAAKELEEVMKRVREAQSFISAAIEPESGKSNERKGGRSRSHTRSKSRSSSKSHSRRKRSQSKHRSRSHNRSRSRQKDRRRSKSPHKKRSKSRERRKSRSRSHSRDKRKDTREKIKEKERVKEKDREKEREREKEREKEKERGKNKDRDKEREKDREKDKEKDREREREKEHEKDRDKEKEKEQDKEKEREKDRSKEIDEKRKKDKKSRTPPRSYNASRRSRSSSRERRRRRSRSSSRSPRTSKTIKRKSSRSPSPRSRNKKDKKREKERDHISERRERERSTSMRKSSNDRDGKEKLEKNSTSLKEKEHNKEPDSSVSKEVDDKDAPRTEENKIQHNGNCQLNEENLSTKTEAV
UniProt Q9C0D9, whole entry: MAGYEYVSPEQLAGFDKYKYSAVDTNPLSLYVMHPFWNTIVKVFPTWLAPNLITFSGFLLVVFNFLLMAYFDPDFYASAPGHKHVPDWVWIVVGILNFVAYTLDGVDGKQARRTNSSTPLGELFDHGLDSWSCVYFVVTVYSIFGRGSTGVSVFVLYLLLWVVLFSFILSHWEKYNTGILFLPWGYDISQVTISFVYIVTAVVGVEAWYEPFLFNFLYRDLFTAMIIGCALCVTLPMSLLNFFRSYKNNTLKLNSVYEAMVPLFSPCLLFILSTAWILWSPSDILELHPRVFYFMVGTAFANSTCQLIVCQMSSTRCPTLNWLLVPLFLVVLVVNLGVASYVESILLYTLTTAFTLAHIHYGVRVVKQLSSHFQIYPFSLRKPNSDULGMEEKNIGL
UniProt Q99590: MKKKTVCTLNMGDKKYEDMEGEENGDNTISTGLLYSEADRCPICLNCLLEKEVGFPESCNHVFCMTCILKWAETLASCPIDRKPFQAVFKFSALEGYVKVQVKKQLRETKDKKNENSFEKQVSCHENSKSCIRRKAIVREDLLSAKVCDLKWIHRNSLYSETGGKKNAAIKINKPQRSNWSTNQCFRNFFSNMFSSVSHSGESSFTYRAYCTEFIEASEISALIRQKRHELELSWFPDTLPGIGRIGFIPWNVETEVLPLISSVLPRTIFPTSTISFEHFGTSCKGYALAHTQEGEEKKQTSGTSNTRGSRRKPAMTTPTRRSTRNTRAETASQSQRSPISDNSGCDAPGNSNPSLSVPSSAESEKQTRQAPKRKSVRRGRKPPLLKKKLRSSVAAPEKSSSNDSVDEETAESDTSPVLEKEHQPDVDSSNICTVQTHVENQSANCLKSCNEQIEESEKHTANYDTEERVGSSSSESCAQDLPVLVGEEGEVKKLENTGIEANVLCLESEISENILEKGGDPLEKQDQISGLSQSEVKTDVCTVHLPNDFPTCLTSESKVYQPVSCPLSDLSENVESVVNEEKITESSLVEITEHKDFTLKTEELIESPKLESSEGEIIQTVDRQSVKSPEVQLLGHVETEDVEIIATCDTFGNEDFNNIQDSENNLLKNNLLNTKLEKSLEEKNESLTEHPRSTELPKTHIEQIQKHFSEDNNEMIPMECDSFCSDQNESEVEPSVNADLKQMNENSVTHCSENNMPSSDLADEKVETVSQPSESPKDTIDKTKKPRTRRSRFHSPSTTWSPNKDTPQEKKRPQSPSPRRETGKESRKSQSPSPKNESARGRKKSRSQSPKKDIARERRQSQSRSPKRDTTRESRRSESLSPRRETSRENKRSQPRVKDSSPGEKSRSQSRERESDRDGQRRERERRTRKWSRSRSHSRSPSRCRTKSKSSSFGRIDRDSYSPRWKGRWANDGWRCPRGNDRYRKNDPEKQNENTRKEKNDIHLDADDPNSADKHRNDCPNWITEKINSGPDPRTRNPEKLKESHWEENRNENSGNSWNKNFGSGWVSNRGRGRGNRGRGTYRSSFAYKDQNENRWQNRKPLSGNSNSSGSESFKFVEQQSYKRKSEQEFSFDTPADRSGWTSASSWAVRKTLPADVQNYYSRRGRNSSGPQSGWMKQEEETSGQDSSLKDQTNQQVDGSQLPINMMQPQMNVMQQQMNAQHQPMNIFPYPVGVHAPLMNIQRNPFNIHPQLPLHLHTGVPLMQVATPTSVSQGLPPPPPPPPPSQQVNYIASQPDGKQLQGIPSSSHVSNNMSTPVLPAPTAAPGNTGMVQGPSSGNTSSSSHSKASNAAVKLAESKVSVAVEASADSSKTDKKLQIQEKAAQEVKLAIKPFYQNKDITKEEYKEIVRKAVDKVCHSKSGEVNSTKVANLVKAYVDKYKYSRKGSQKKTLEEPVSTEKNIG
UniProt Q149N8: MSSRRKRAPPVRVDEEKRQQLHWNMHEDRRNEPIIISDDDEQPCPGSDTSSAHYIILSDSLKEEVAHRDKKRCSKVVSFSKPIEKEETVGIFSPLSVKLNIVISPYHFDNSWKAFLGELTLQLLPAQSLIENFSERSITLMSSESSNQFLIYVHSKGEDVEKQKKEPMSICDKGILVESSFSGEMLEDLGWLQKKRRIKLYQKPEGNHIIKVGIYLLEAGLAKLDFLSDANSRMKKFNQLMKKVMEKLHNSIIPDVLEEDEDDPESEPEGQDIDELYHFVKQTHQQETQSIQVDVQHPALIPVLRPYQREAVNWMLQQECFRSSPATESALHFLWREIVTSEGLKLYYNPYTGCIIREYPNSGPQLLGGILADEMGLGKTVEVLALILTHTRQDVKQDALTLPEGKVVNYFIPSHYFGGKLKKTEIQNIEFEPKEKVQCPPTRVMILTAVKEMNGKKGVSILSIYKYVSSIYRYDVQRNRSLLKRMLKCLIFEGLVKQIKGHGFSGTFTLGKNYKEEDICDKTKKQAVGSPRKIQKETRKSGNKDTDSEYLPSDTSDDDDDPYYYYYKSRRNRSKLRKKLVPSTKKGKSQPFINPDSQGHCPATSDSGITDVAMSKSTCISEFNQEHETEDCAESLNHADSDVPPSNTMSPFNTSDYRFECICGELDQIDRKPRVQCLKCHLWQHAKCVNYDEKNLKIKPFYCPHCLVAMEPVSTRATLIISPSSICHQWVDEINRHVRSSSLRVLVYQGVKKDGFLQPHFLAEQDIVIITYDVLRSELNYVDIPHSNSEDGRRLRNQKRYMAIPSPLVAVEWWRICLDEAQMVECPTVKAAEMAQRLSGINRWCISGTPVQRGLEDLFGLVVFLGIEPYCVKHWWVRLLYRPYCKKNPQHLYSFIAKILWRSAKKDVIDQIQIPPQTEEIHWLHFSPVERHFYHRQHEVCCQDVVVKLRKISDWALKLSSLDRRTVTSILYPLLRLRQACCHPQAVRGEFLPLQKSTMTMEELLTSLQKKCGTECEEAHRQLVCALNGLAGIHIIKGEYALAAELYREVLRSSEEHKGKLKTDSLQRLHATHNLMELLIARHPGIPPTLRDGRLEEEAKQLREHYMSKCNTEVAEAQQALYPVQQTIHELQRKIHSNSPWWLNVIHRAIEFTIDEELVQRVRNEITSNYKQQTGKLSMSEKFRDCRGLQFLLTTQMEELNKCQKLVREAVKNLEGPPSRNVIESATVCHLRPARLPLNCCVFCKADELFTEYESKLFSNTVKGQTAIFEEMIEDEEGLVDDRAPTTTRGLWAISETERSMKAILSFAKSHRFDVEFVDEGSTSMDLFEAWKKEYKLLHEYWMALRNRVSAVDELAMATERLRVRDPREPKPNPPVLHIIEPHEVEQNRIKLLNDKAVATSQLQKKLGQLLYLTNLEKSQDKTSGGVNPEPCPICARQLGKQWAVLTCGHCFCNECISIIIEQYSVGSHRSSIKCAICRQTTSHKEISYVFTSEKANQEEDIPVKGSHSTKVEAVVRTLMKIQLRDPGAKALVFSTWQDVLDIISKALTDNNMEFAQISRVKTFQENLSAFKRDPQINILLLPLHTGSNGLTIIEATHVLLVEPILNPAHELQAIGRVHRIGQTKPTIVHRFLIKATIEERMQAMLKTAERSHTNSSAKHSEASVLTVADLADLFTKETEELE
UniProt Q8NBX0: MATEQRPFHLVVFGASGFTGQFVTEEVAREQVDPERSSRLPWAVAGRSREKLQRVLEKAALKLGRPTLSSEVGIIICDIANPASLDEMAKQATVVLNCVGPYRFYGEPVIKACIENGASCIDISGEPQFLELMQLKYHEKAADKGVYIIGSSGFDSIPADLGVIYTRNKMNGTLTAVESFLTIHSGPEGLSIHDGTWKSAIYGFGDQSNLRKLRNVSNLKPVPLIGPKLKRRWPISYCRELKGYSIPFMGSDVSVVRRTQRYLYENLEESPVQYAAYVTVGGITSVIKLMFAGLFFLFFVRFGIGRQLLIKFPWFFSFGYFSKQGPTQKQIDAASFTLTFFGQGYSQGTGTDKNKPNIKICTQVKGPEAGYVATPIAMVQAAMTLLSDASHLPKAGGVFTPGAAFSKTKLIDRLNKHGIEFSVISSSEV
UniProt Q96B97, whole entry: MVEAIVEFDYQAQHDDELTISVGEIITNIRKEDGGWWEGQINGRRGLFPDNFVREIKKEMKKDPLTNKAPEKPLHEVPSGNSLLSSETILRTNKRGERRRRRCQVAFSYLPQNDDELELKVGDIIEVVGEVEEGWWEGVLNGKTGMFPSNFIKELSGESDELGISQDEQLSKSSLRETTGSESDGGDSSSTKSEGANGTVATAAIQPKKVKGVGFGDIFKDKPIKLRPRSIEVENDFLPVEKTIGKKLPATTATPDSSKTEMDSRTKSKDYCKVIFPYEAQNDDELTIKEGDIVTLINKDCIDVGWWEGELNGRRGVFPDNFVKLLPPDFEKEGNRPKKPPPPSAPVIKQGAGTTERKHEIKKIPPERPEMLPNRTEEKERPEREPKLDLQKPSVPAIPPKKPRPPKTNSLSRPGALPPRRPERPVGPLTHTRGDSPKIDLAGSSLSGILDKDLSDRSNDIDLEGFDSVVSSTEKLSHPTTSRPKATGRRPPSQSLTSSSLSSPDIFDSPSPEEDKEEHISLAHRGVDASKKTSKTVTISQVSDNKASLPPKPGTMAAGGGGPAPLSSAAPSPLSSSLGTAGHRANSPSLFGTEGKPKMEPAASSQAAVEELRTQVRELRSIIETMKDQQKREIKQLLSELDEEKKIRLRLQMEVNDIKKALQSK
UniProt Q9ULF5: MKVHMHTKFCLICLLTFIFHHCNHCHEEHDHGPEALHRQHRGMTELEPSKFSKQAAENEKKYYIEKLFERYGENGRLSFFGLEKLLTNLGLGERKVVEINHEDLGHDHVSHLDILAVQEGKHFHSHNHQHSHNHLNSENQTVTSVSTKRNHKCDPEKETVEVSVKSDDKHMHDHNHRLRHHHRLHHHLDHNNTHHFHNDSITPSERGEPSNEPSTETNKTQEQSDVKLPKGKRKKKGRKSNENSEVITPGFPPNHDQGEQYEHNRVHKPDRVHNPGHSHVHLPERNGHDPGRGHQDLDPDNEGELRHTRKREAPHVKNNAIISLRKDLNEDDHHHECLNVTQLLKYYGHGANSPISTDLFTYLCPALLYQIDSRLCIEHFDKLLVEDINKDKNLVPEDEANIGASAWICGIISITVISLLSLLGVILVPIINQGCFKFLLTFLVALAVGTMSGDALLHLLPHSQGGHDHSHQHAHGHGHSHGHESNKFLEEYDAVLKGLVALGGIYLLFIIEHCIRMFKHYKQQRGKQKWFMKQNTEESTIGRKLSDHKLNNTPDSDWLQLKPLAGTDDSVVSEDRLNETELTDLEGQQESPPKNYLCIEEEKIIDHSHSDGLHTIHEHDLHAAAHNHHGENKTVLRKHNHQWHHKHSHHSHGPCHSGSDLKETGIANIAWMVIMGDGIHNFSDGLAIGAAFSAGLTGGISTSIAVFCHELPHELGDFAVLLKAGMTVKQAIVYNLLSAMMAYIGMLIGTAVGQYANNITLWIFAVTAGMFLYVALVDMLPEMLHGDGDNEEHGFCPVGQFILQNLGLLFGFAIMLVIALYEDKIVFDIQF
UniProt P60468, whole entry: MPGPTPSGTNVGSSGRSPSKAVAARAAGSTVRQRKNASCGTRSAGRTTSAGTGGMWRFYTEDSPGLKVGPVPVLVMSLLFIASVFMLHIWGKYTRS
UniProt Q9Y6B6: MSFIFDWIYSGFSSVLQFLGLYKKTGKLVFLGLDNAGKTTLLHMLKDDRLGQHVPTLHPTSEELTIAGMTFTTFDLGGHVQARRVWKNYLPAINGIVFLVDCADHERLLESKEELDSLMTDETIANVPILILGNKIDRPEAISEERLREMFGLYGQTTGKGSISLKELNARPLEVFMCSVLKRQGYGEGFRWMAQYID

Compound in the assay: COc1ccc(Cn2ccc3ccc(C(=O)NO)cc32)cc1
The experiment in a line: dose-dependent thermal stabilisation call (2D-TPP, DLPTP, 10% FDR) (binary (1 = stabilised)); higher = stabilised by the compound. The note with it: system: HL-60 intact cells; concentration range 0.04-10 µM.
Take SDF2 (UniProt Q99470): the “dose-dependent thermal stabilisation call” value is inactive: 0. To SIRT5 (UniProt Q9NXA8) belongs inactive: 0; to SKIV2L (UniProt Q15477), inactive: 0.

For SF3B4 (UniProt Q15427), the “dose-dependent thermal stabilisation call” value is inactive: 0. In the case of SFRS8 (UniProt Q12872), the “dose-dependent thermal stabilisation call” value was inactive: 0.

For SLC27A1 (UniProt Q6PCB7), the “dose-dependent thermal stabilisation call” value was inactive: 0. Consider SLC35C1 (UniProt Q96A29), for which the “dose-dependent thermal stabilisation call” value was inactive: 0. As to SEL1L (UniProt Q9UBV2), the “dose-dependent thermal stabilisation call” value was inactive: 0. With SASS6 (UniProt Q6UVJ0) the figure was inactive: 0; with SFRS12 (UniProt Q8WXA9), inactive: 0.

SELI (UniProt Q9C0D9): the “dose-dependent thermal stabilisation call” value was inactive: 0. In the case of SKIV2L2 (UniProt P42285), the “dose-dependent thermal stabilisation call” value is inactive: 0. With SLC25A38 (UniProt Q96DW6) the figure was inactive: 0; with SFRS2IP (UniProt Q99590), inactive: 0; with SIAE (UniProt Q9HAT2), inactive: 0.

In the case of SLC17A5 (UniProt Q9NRA2), the “dose-dependent thermal stabilisation call” value was inactive: 0. With SHPRH (UniProt Q149N8) the figure was inactive: 0; with SDCCAG1 (UniProt O60524), inactive: 0. To SLC38A9 (UniProt Q8NBW4) belongs inactive: 0; to SEPHS2 (UniProt Q99611), inactive: 0.

Regarding SLC26A6 (UniProt Q9BXS9), the “dose-dependent thermal stabilisation call” value is inactive: 0. Take SLC38A2 (UniProt Q96QD8): the “dose-dependent thermal stabilisation call” value is inactive: 0.

As to SLC25A17 (UniProt O43808), the “dose-dependent thermal stabilisation call” value was inactive: 0. To SFRS6 (UniProt Q13247) belongs inactive: 0. To SLC15A4 (UniProt Q8N697) belongs inactive: 0. To SEPHS1 (UniProt P49903) belongs inactive: 0; to SCCPDH (UniProt Q8NBX0), active: 1. Turning to SART3 (UniProt Q15020), the “dose-dependent thermal stabilisation call” value was inactive: 0.

Take SH3KBP1 (UniProt Q96B97): the “dose-dependent thermal stabilisation call” value is inactive: 0. With SDF4 (UniProt Q9BRK5) the figure was inactive: 0; with SCFD2 (UniProt Q8WU76), inactive: 0; with SLC35E1 (UniProt Q96K37), inactive: 0.

As for SLC39A10 (UniProt Q9ULF5), the “dose-dependent thermal stabilisation call” value was inactive: 0. To SEC61B (UniProt P60468) belongs inactive: 0; to SAR1B (UniProt Q9Y6B6), inactive: 0; to SFRS9 (UniProt Q13242), inactive: 0. To SLC25A11 (UniProt Q02978) belongs inactive: 0.
